The target in assay [1] is T1, human TGFβRI-ECD with C-terminal His Tag (human) (UniProt P36897).
T1 sequence: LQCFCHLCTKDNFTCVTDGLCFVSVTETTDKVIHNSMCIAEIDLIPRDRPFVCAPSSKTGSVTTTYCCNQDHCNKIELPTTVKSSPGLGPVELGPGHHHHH
Nature of the assay: co-expression in FreeStyle 293F cells, His-tag pull-down on Ni magnetic beads, SDS-PAGE.

Sequences of proteins named here, by UniProt entry; tags and fusion partners are left off. A change or cut given only in a name is not applied to a line headed by its entry.
UniProt Q9UBP4: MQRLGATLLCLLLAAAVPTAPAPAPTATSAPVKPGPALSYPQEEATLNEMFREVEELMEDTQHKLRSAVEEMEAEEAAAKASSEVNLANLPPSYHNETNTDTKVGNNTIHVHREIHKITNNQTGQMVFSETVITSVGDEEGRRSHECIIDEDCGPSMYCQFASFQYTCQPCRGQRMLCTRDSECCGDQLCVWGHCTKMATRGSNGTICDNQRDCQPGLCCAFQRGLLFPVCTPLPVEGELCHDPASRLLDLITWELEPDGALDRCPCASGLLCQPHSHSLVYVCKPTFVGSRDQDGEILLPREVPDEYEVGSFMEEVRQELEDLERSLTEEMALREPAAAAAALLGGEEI

For assay [2], the target named is T2, extracellular domain of the TGFβ type I receptor found in the culture supernatant of human monocyte-derived dendritic cell-like cells (human) (UniProt P36897).
T2 sequence (looked up): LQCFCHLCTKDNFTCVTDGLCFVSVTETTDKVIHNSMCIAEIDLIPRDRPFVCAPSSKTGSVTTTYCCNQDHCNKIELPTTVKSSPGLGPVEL
As to the kind of experiment: pull-down from culture supernatant on REIC-coated magnetic beads, trypsin digest, HPLC/QTOF mass analysis.

Results are given in words; binding and its absence hold for the method and conditions named. Binding seen in cells or lysates may run through a third protein. Some binding calls cover weakened binding; strength is not graded here. For some of these results: Where a sequence is shown, tags or fusion partners need not be part of it.

Here are results for three substances from patent US20190330291A1.

Take “REIC C domain (partial protein obtained by deleting 120 amino acids at the N-terminal from the full-length REIC/Dkk-3 protein) (from UniProt Q9UBP4 142-350) (ligand)”: the binding entry in assay [1] is “binds”.

As to “REIC-17 kDa (Cys-rich domain protein of REIC/Dkk-3) (from UniProt Q9UBP4 22-288) (ligand)”, the binding result in assay [1] is recorded as “binds”.

Regarding “full-length REIC/Dkk-3 protein (human FL-REIC, secreted from FreeStyle 293 cells) (from UniProt Q9UBP4 22-350) (ligand)”, the binding result in assay [2] and in assay [1] was “binds” each time.
